Laboratory results from PubChem BioAssay AID248 (DTP/NCI, 2004).
The list does not hold the whole screen: it is rich in T/C values a quarter to a half above the control, in often repeated tests (any T/C) and in doses without a T/C. Further doses and runs are listed elsewhere. T/C gives the treated animals as a percentage of the vehicle group. Some doses have a count of surviving animals in place of a T/C: the source holds a T/C of zero for them, seemingly a mark for toxic or unscored doses. Some survivor counts are full or nearly so, which does not show that the dose was tolerated: survival well below the control is almost never listed, so the zero probably covers shortened survival too. Counts of survivors are from the toxicity check (mostly the fifth day) where no day follows; animals may have died later. Schedule codes are those of the source, read here as Q, the interval in days (D) or hours (H), X, the number of doses. Some doses were run more than once; the values are given in rising order. For survival time, this PubChem deposit counts one and a half times the control or more as active, and values a quarter to a half above the control carry no call in these data; other NCI protocols may use other cut-offs.

Test system: L1210 leukemia ip in BDF1 mice, survival T/C
Test: NCI In Vivo Anticancer Drug Screen. Data for tumor model L1210 Leukemia (intraperitoneal) in B6D2F1 (BDF1) mice
Details: T/C endpoint: mean survival time, higher T/C = longer survival
[1] = dose: 50.0 mg/kg/injection, schedule: Q01DX009 (ip), vehicle: Klucel (hydroxypropylcellulose) (HPC)
[2] = dose: 100.0 mg/kg/injection, schedule: Q01DX009 (ip), vehicle: Klucel (hydroxypropylcellulose) (HPC)
[3] = dose: 200.0 mg/kg/injection, schedule: Q01DX009 (ip), vehicle: Klucel (hydroxypropylcellulose) (HPC)
[4] = dose: 400.0 mg/kg/injection, schedule: Q01DX001 (ip), vehicle: saline
[5] = dose: 400.0 mg/kg/injection, schedule: Q04DX003 (ip), vehicle: saline
[6] = dose: 200.0 mg/kg/injection, schedule: Q04DX003 (ip), vehicle: Klucel (hydroxypropylcellulose) (HPC)
[7] = dose: 400.0 mg/kg/injection, schedule: Q04DX003 (ip), vehicle: Klucel (hydroxypropylcellulose) (HPC)
[8] = dose: 100.0 mg/kg/injection, schedule: Q04DX003 (ip), vehicle: Klucel (hydroxypropylcellulose) (HPC)

N#Cc1ccccc1N=NNc1ccccc1C#N
survivor count [1]: 0 of 6
survivor count [2]: 0 of 6
survivor count [3]: 0 of 6
survivor count (dose: 300.0 mg/kg/injection, schedule: Q01DX001 (ip), vehicle: other): 0 of 6

CC(=O)Nc1ccc(Cc2ccc(N)cc2)cc1
survivor count [4]: 2 of 6

CC(=O)N(NC(C)C)C(C)C
survivor count (dose: 200.0 mg/kg/injection, schedule: Q01DX009 (ip), vehicle: saline): 0 of 6
survivor count (dose: 200.0 mg/kg/injection, schedule: Q04DX003 (ip), vehicle: saline): 4 of 4
survivor count (dose: 400.0 mg/kg/injection, schedule: Q01DX009 (ip), vehicle: saline): 0 of 6
survivor count [5]: 0 of 4

CC(=O)CCC(C#N)c1ccccc1 (centres undefined)
survivor count (dose: 200.0 mg/kg/injection, schedule: Q04DX002 (ip), vehicle: saline): 0 of 3
survivor count (dose: 400.0 mg/kg/injection, schedule: Q04DX002 (ip), vehicle: saline): 1 of 3

CN(C)c1ccc([N+](=O)[O-])cn1
survivor count (dose: 400.0 mg/kg/injection, schedule: Q04DX002 (ip), vehicle: saline with Tween-80): 3 of 3

CN(C)CC1CCCCN1 (centres undefined)
survivor count [5]: 6 of 6

CCCCCCCCCCCCNC
survivor count (dose: 100.0 mg/kg/injection, schedule: Q04DX003 (ip), vehicle: saline with Tween-80): 3 of 6
survivor count (dose: 200.0 mg/kg/injection, schedule: Q04DX003 (ip), vehicle: saline with Tween-80): 6 of 6
survivor count (dose: 400.0 mg/kg/injection, schedule: Q04DX003 (ip), vehicle: saline with Tween-80): 0 of 6

C=CCc1ccc(OCCOCCNC2CC(C)CCC2C(C)C)c(OC)c1 (centres undefined)
survivor count [6]: 0 of 6
survivor count [7]: 0 of 6

COc1cc2c(cc1OC)C[N+]1(C)CCc3cc(OC)c(OC)cc3C1C2 (centres undefined)
survivor count (dose: 75.0 mg/kg/injection, schedule: Q01DX001 (ip), vehicle: saline): 0 of 6
survivor count (dose: 150.0 mg/kg/injection, schedule: Q01DX001 (ip), vehicle: saline): 0 of 6
survivor count (dose: 300.0 mg/kg/injection, schedule: Q01DX001 (ip), vehicle: saline): 0 of 6

CC(C)(CO)NCc1ccc(Cl)c(Cl)c1
survivor count (dose: 400.0 mg/kg/injection, schedule: Q01DX009 (ip), vehicle: Klucel (hydroxypropylcellulose) (HPC)): 3 of 6

CCOC(=O)NC1=C(N2CC2C)C(=O)C(NC(=O)OCC)=C(N2CC2C)C1=O (centres undefined)
survivor count (dose: 15.0 mg/kg/injection, schedule: Q01DX009 (ip), vehicle: Klucel (hydroxypropylcellulose) (HPC)): 0 of 6
survivor count (dose: 30.0 mg/kg/injection, schedule: Q01DX009 (ip), vehicle: Klucel (hydroxypropylcellulose) (HPC)): 0 of 6 and 1 of 6
T/C [8]: 129 % of control
survivor count [8]: 0 of 6
survivor count [6]: 2 of 6
survivor count [7]: 0 of 6

CCCCCCC[As](=O)(O)O
survivor count (dose: 25.0 mg/kg/injection, schedule: Q01DX009 (ip), vehicle: Klucel (hydroxypropylcellulose) (HPC)): 0 of 3
survivor count [1]: 0 of 3
survivor count [2]: 0 of 3
survivor count [3]: 0 of 3

CC1(C)N=C(N)N=C(N)N1c1cccc(CCCc2ccccc2)c1
survivor count (dose: 50.0 mg/kg/injection, schedule: Q01DX001 (ip), vehicle: saline): 1 of 3
survivor count (dose: 100.0 mg/kg/injection, schedule: Q01DX001 (ip), vehicle: saline): 0 of 3 and 0 of 6
survivor count (dose: 200.0 mg/kg/injection, schedule: Q01DX001 (ip), vehicle: saline): 0 of 6
survivor count [4]: 0 of 6

C/C(=N/NC(N)=S)c1c(C)[nH]c2ccccc12
survivor count (dose: 75.0 mg/kg/injection, schedule: Q01DX001 (ip), vehicle: alcohol): 1 of 6
survivor count (dose: 150.0 mg/kg/injection, schedule: Q01DX001 (ip), vehicle: alcohol): 0 of 6
survivor count (dose: 300.0 mg/kg/injection, schedule: Q01DX001 (ip), vehicle: alcohol): 0 of 6
